Construct, isoform or probe ends are uncertain for at least one entry. For some of these results: The comparison behind a weaker result is the experiment's own reference, which may not be listed here. At least one verdict was read from the data and is not stated in words by the source.
What was measured:
Assay in all cases: fluorescence anisotropy
[1] = tested on: PRC2 core complex, EZH2 mt1 (Homo sapiens); conditions: FA: 50 mM Tris-HCl pH 7.5, 200 mM KCl (G4 24, Supp. Fig. 1d) or 100 mM KCl (RNA panel), 2.5 mM MgCl2, 0.1 mM ZnCl2, 2 mM 2-ME, 0.1 mg/ml BSA, 0.05% NP-40, recombinant protein, protein details: N-terminal His6-MBP, PreScission-cleavable
[2] = tested on: PRC2 core complex, EZH2 mt2 (Homo sapiens); conditions: FA: 50 mM Tris-HCl pH 7.5, 200 mM KCl (G4 24, Supp. Fig. 1d) or 100 mM KCl (RNA panel), 2.5 mM MgCl2, 0.1 mM ZnCl2, 2 mM 2-ME, 0.1 mg/ml BSA, 0.05% NP-40, recombinant protein, protein details: N-terminal His6-MBP, PreScission-cleavable
[3] = tested on: PRC2 core complex, EZH2 wild type (Homo sapiens); conditions: 200 mM KCl; FA: 50 mM Tris-HCl pH 7.5, 200 mM KCl (G4 24, Supp. Fig. 1d) or 100 mM KCl (RNA panel), 2.5 mM MgCl2, 0.1 mM ZnCl2, 2 mM 2-ME, 0.1 mg/ml BSA, 0.05% NP-40; recombinant protein; protein details: N-terminal His6-MBP, PreScission-cleavable; label: 3' fluorescein (6-FAM)

| Sequence | binding result ([1]; 100 mM KCl, label: 3' 6-FAM) | binding result ([2]; 100 mM KCl, label: 3' 6-FAM) | binding result ([1]; 200 mM KCl, stronger defect than mt2, label: 3' fluorescein (6-FAM)) | binding result ([2]; 200 mM KCl, milder defect than mt1, label: 3' fluorescein (6-FAM)) | binding result [3] |
| --- | --- | --- | --- | --- | --- |
| GGGAGCCCAGAGUUACAGACGGCGGCGAGAGGAAGGAGGGGCGU [HOTAIR RNA] | binds more weakly | binds more weakly | – | – | – |
| UGCCCAUCUACACCUCACGAGGGCA [MEG3 RNA] | binds more weakly | binds more weakly | – | – | – |
| UUAGGGUUAGGGUUAGGGUUAGGG [G4 24 RNA] | – | – | binds more weakly | binds more weakly | binds |
